Assay results published in the supplement of paper PMC3334620.
In all, about 33,000 sequences were measured (“E-score (-0.5 to 0.5)”: median about -0.0059, highest 2% from about 0.26 on). This is one part of the list.

biological target: T1, Cin5 (UniProt P40917); assay: PBM E-score (8-mer binding enrichment) (E-score (-0.5 to 0.5)); higher = stronger / more preferred TF binding; conditions: protein concentration: 100 nM; construct: GST-full length
T1 sequence: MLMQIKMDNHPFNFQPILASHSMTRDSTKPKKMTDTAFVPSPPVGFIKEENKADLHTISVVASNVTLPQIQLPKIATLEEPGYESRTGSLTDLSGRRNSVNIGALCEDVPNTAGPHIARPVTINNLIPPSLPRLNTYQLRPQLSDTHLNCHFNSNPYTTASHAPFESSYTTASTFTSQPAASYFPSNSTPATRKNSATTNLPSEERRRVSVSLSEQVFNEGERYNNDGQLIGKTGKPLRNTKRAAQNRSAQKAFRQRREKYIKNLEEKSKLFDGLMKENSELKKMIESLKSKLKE
Method in brief: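 Universal all-10-mer Agilent arrays, double-stranded by primer extension on fresh or once-stripped slides, were probed with about 100-200 nM GST-tagged yeast transcription factors made by PURExpress. Fluorescent anti-GST detected bound protein, and masliner normalised the scans. E-scores from the Universal PBM Analysis Suite were given to each ungapped eight-base word pooled with its reverse complement.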

Row | Sequence | PBM E-score
1 | CGATCGAG | 0.179
2 | AGAGGCCG | -0.323
3 | ATATAAAA | 0.154
4 | CCGGCACA | -0.186
5 | ACGGTTTA | -0.0471
6 | ACTTATCT | 0.1
7 | GCTTTTAC | -0.0399
8 | GTGAACGA | -0.0458
9 | CACGAGAA | -0.0477
10 | GCGGTTAA | -0.00792
11 | GACCTAGC | -0.13
12 | CTCGTGAA | 0.0406
13 | CCATCGGA | -0.0569
14 | CGTCAGAC | -0.106
15 | AGATTTTC | 0.0614
16 | AACGGCGC | -0.215
17 | GTCTTTTA | -0.113
18 | CGTCCGAA | -0.0109
19 | CACGGCAG | -0.0512
20 | AACGTAAA | 0.21
21 | ATGATGTG | 0.145
22 | ATAGGTCC | 0.139
23 | GCAAGTGC | -0.22
24 | ATAGAAGG | -0.172
25 | AGCCCCTG | -0.274

Row | Sequence | PBM E-score
26 | AACCCTAA | 0.00675
27 | AGTGCCCG | -0.0819
28 | CTGCGCTC | -0.284
29 | ACGCGTCT | -0.0308
30 | GACGTCAA | 0.163
31 | ATCTTTTA | 0.0751
32 | GCACGGGC | -0.311
33 | AAAGCCGT | -0.198
34 | CTGAATGA | 0.0842
35 | CTACAGCC | -0.13
36 | CTAGGAAC | -0.124
37 | AAAACTGC | 0.0313
38 | CGTGGACA | -0.0352
39 | AACCGTTG | 0.116
40 | CGCATGCG | -0.0499
41 | ACGGTCGA | -0.0133
42 | ACAGGGCC | -0.036
43 | AATGATGC | 0.114
44 | AGCAAAAC | 0.102
45 | AATCAGTG | 0.133
46 | AGTTTGGG | 0.162
47 | AGCGGATC | 0.0955
48 | AACGTGAC | 0.0406
49 | CGGATTGA | 0.131
50 | CGGTAGAA | -0.303

Row | Sequence | PBM E-score
51 | ATTGACGG | 0.0426
52 | CCGTTAAG | -0.15
53 | TGCAATAA | 0.216
54 | GATCAGCC | -0.051
55 | CGCATCTA | 0.271
56 | CATGTCCC | -0.0302
57 | AAATTATG | 0.24
58 | ACCCGCTA | -0.0818
59 | ATTCTGTA | -0.0612
60 | AGAAGTAA | 0.159
61 | CGACACCC | -0.0488
62 | CTGCCATC | 0.0753
63 | AAGTGGTC | -0.049
64 | GAGGTACC | -0.194
65 | ACCTGGGA | 0.0597
66 | CAGTTTAA | 0.00606
67 | CTTTTGGC | -0.0628
68 | AATGCAAC | 0.0401
69 | TAATTCGA | 0.0111
70 | ATACTTAA | 0.128
71 | ATTTCAGC | 0.0134
72 | CTGACATC | 0.173
73 | CCGCAGTA | -0.133
74 | ACATTAGT | 0.109
75 | GTAAGCAA | 0.419

Row | Sequence | PBM E-score
76 | AATACTTA | 0.0724
77 | TACGAGGA | 0.0138
78 | AGAGGTCG | -0.0588
79 | AGCTTTTC | -0.105
80 | CTCGAGTA | 0.147
81 | CTTGTAAC | 0.129
82 | AGGTTACG | 0.067
83 | GGCGCGCA | 0.116
84 | ATGCTTTA | -0.0364
85 | TCCTGCGA | 0.00245
86 | CGGAGGTA | -0.106
87 | CTCCTCAG | -0.237
88 | TCCGTCGA | 0.193
89 | GTCATCGA | -0.115
90 | CTTCCAGC | -0.219
91 | TCGAAACA | 0.183
92 | CTATAAGA | 0.0762
93 | ACCACCAG | 0.0519
94 | GCCCTTAC | -0.289
95 | ACTCGAGA | 0.116
96 | CAGGGGCC | -0.202
97 | GCGGGCAC | -0.00324
98 | ACATAGAG | -0.0918
99 | CAGGAAGA | -0.0593
100 | ACGTCTGA | 0.021

Row | Sequence | PBM E-score
101 | CTGACACC | -0.181
102 | ACAATGCT | 0.0549
103 | ACGGACCA | 0.127
104 | ATCATATA | 0.269
105 | CCACAATC | 0.0126
106 | CTCCTATA | -0.319
107 | CGTGCCTC | -0.176
108 | GAACTGAA | 0.0861
109 | GCACTTAC | 0.112
110 | TAAGGACA | -0.103
111 | AGTCCGGC | -0.124
112 | CTCCCGTA | -0.157
113 | AGCCGAAA | -0.0624
114 | GGCTTGCA | -0.0732
115 | CGCTGACA | 0.191
116 | GTGCTAAC | -0.0228
117 | AATTTACC | -0.0326
118 | TGGATTAA | 0.118
119 | GCCCCCAA | -0.299
120 | ACATTGGT | -0.0245
121 | GGTAGAAC | 0.0259
122 | ACTATAAG | 0.142
123 | GAGGTGGC | -0.175
124 | AATGACTA | 0.0463
125 | AAGATGAT | 0.0774

Look-ups from above:
CACGGCAG | PBM E-score: -0.0512
ACCCGCTA | PBM E-score: -0.0818
CCACAATC | PBM E-score: 0.0126
GCACGGGC | PBM E-score: -0.311
GCTTTTAC | PBM E-score: -0.0399
CAGGAAGA | PBM E-score: -0.0593
ACGCGTCT | PBM E-score: -0.0308

Random excerpt: 2 records from the list.
Row | Sequence | PBM E-score
118 | TGGATTAA | 0.118
101 | CTGACACC | -0.181

(list continues)

Row | Sequence | PBM E-score
126 | CGACCGCA | -0.0103
127 | ATGTGGGG | -0.0693
128 | AGCTGTAG | 0.139
129 | ACGTGACT | -0.271
130 | CCTCGCTC | -0.0422
131 | TGGTTCAA | 0.0807
132 | CCTAGCAA | -0.0348
133 | GACACGAC | -0.0785
134 | CAAAGAGG | -0.0892
135 | GATTCATA | 0.131
136 | AATCGACT | -0.0454
137 | CAATAGCC | 0.0319
138 | CTAGGAGC | -0.291
139 | CTCGAATA | -0.186
140 | GAGTTGCA | 0.088
141 | ATGCACCG | -0.131
142 | AAAGAATT | 0.0863
143 | CCGCACAA | -0.0338
144 | CTAAGGCA | -0.173
145 | ACACGCGC | -0.0699
146 | AATCGTAG | 0.0405
147 | CGTCCCAC | -0.0257
148 | AAGGTAGA | -0.0568
149 | AGATTTAA | 0.0294
150 | GTTGACAA | 0.18

Row | Sequence | PBM E-score
151 | CACAGGTG | -0.0586
152 | CTGCCCAA | -0.00475
153 | AACTACCC | -0.0456
154 | ATACGTGC | 0.0387
155 | TACAAGAA | 0.152
156 | GTAAGCAC | 0.319
157 | CCGGGCTA | -0.296
158 | CTAGTCAC | -0.111
159 | GCTACTGA | 0.0276
160 | CAGTGACC | -0.0879
161 | CCTGCAAA | -0.198
162 | GAAAGAAA | 0.283
163 | AACGGTAA | -0.00391
164 | ACTCCCGA | -0.14
165 | GTAGGGTA | 0.0976
166 | AGCTATCA | 0.103
167 | GTCCAGAC | -0.291
168 | AGTCTACG | -0.192
169 | CAGGGTAG | -0.0591
170 | AGCAACAC | 0.115
171 | GGTCCACC | -0.29
172 | CGGCCTAA | -0.174
173 | CGGTAACG | -0.0557
174 | GGCGAGCC | -0.17
175 | CTAGCGAA | -0.219

Row | Sequence | PBM E-score
176 | AGATGAAA | 0.166
177 | CATCGATC | -0.0097
178 | CAGACGCA | 0.101
179 | GATGGGAA | -0.176
180 | AGGTTAAG | -0.121
181 | CGCCCCGA | 0.0731
182 | CCTGAAGG | -0.17
183 | GCACAAAC | 0.0336
184 | CCCCAACA | 0.0749
185 | CCAGTCGC | -0.0488
186 | ACCTACGA | -0.122
187 | AGTGCCGC | -0.124
188 | CAGGCCTA | 0.00358
189 | CCTCAGAA | -0.179
190 | CACTGATA | 0.00814
191 | AGTTCCAG | -0.107
192 | AGAGTTCG | 0.0959
193 | GTGACGTA | 0.204
194 | CGTAAGGA | -0.0602
195 | ATCGATGA | 0.0297
196 | CCTCTCCC | -0.155
197 | ATCTCCAG | -0.16
198 | TAGTAGCA | 0.0354
199 | AAAATCTG | 0.127
200 | CGCTTCCC | -0.191

Row | Sequence | PBM E-score
201 | ATCTGTGA | -0.0107
202 | CGTATGAG | 0.0151
203 | AAAGCACC | -0.107
204 | CAACCATG | 0.181
205 | AGCTTGAG | -0.19
206 | CCGCGGCA | 0.244
207 | GTGGCTCA | -0.00924
208 | CAAGTCAA | 0.0864
209 | ACAGTCCA | -0.057
210 | TAATGCTA | 0.192
211 | GGTTCCTA | -0.1
212 | ACAAGAGG | -0.127
213 | GATGGGCA | 0.0726
214 | AACGTCAA | -0.0914
215 | CTTGTGAA | 0.0448
216 | AAACGCCA | 0.128
217 | AATATGGT | 0.146
218 | ATAGGACC | -0.0995
219 | AAGGTGCA | -0.0784
